Measured values reported in patent US11435345B2, “Detection and treatment of demyelinating diseases” (MATN SCIENTIFIC LIMITED, priority 2016, dated 2022).
“Also recorded” adds a separate entry of the source. Part of at least one peptide drawing is inferred or uncertain, most often the ends. No end group written: not given here.

System: C57BL/6 mice
Assay: Disease induction with antigen and adjuvant in combination with Pertussis toxin
Assay type: in vivo, mouse
Conditions: for grade of plaques compared to control animals: mid brain section, antigen + adjuvant + pertussis, FIG. 8
Experimental: Male (n=16) and female (n=16) C57BL/6 mice, weighing between 16-18 g, were purchased from Royan institute (Tehran, Iran). MS induction study started when mice reached 6-8 weeks of age. Similar investigations were carried chick and guinea pig (data not shown). All procedures were performed aseptically and under supervision of Gandhi Hospital medical ethics committee (Tehran, Iran). Freund's complete adjuvant and Pertussis toxin purchased from Sigma-Aldrich (Dorset, UK).
At day 1 and day 2, 250 μg of antigen (oligopeptides of the invention) diluted in 150 μl of saline combined with 150 μl of adjuvant was injected intra-dermally into alcohol wiped back of each mouse. Following the injection of antigens, 400 ng Pertussis toxin diluted in 300 μl distilled water was injected intraperitoneally. Two control groups received either 150 μl distilled water in 150 μl of adjuvant or 400 ng Pertussis toxin diluted in 300 μl distilled water. The animals were kept in standard housing condition with appropriate temperature and humidity as well as adequate supplies of food and fresh water.
After scarifying mice by anaesthesia overdose at day 15 of injection, their brain was dissected out and fixed in 10% Formalin for histological analysis. The fixed samples were subsequently cut horizontally and processed to produce 5-micron thin paraffin sections, which then were stained with Haematoxylin and eosin (H&E), Glial fibrillary acidic protein (GFAP), CD-68 and Luxol fast blue (LFB). Various sections of the brain were then analyzed and imaged using a bright-field microscope (Optika B-383PL, Bergamo, Italy). Grade of plaque formation was defined as number of plaques measured in mid brain section as follow: […]
The effect of injected oligopeptide antigens of the invention on muscular function was tested by measuring animal fall time from inverted cage and ring. These tests follow the format of commonly used functional muscle evaluation tests in mice that use “wire hanging” behavioral tests wherein latency to fall after being suspended from a substrate is quantified to give a measure of muscular function.

| Sequence | grade of plaques compared to control animals | animal weight loss compared to control group (antigen + adjuvant + Pertussis toxin, FIG. 5) |
| --- | --- | --- |
| MPRTQENAHSLERCWL [antigen H, MPRTQENAHSLERCWL] | Less plaque |  |
| RLTLSPEQAHSLILQHL [antigen S, RLTLSPEQAHSLILQHL] | Less plaque | except antigen S; also recorded: non-significant weight loss |
